The record followed here is the supplement of paper PMC8728848.

This is one part of the list.

Assay in all cases: glycan array binding signal (z-score within array); higher = stronger binding
What all share (conditions): glycan notation: IUPAC condensed, linker removed

Experiment [1] addresses Gal(b1-4)GlcNAc(b1-2)Man(a1-3)[Gal(b1-4)GlcNAc(b1-2)Man(a1-6)]Man(b1-4)GlcNAc(b1-4)[Fuc(a1-6)]GlcNAc. A digest of the protocol: (§1)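 Glycan array binding is given as a within-array Z-score, which can be read as non-binding when negative. The arrays, 3228 of them, came from the Consortium for Functional Glycomics database and were retained only where the protein sequence was available. Z-scores were averaged across arrays of the same protein sequence at different concentrations or buffers and across linkers.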

For experiment [2], the target named is Gal(b1-4)GlcNAc(b1-2)Man(a1-3)[Gal(b1-4)GlcNAc(b1-2)Man(a1-6)][Gal(b1-4)GlcNAc(b1-4)]Man(b1-4)GlcNAc(b1-4)[Fuc(a1-6)]GlcNAc. A digest of the protocol: as §1
Experiment [3] addresses Gal(b1-4)GlcNAc(b1-2)Man(a1-3)[Gal(b1-4)GlcNAc(b1-2)Man(a1-6)][GlcNAc(b1-4)]Man(b1-4)GlcNAc(b1-4)[Fuc(a1-6)]GlcNAc. Summed up:
as §1

Experiment [4] has as its target Gal(b1-4)GlcNAc(b1-2)Man(a1-3)[GlcNAc(b1-2)Man(a1-6)]Man(b1-4)GlcNAc(b1-4)GlcNAc. A digest of the protocol: as §1
Experiment [5] addresses Gal(b1-4)GlcNAc(b1-2)Man(a1-3)[GlcNAc(b1-4)][Gal(b1-4)GlcNAc(b1-2)Man(a1-6)]Man(b1-4)GlcNAc(b1-4)GlcNAc. Summed up:
as §1

For experiment [6], the target named is Gal(b1-4)GlcNAc(b1-2)Man(a1-3)[Man(a1-6)]Man(b1-4)GlcNAc(b1-4)GlcNAc. Summed up:
as §1

The target in experiment [7] is Gal(b1-4)GlcNAc(b1-2)Man(a1-6)Man(b1-4)GlcNAc(b1-4)GlcNAc. Summed up:
as §1

Experiment [8] concerns the target Gal(b1-4)GlcNAc(b1-2)Man(a1-6)[GlcNAc(b1-2)Man(a1-3)]Man(b1-4)GlcNAc(b1-4)GlcNAc. Summed up:
as §1

The target in experiment [9] is Gal(b1-4)GlcNAc(b1-2)Man(a1-6)[Man(a1-3)]Man(b1-4)GlcNAc(b1-4)GlcNAc. Summed up: as §1
Experiment [10] has as its target Gal(b1-4)GlcNAc(b1-2)[Gal(b1-4)GlcNAc(b1-4)]Man(a1-3)[Gal(b1-4)GlcNAc(b1-2)Man(a1-6)]Man(b1-4)GlcNAc(b1-4)GlcNAc. Summed up: as §1
The target of experiment [11] is Gal(b1-4)GlcNAc(b1-2)[Gal(b1-4)GlcNAc(b1-4)]Man(a1-3)[Gal(b1-4)GlcNAc(b1-2)[Gal(b1-4)GlcNAc(b1-6)]Man(a1-6)]Man(b1-4)GlcNAc(b1-4)GlcNAc. A digest of the protocol:
as §1

Experiment [12] addresses Gal(b1-4)GlcNAc(b1-2)[Gal(b1-4)GlcNAc(b1-4)]Man(a1-3)[GlcNAc(b1-4)][Gal(b1-4)GlcNAc(b1-2)Man(a1-6)]Man(b1-4)GlcNAc(b1-4)GlcNAc. Summed up: as §1
Experiment [13] concerns the target Gal(b1-4)GlcNAc(b1-2)[Gal(b1-4)GlcNAc(b1-4)]Man(a1-3)[GlcNAc(b1-4)][Gal(b1-4)GlcNAc(b1-2)[Gal(b1-4)GlcNAc(b1-6)]Man(a1-6)]Man(b1-4)GlcNAc(b1-4)GlcNAc. Summed up:
as §1

In experiment [14] the target is Gal(b1-4)GlcNAc(b1-2)[Gal(b1-4)GlcNAc(b1-6)]Man(a1-6)[Gal(b1-4)GlcNAc(b1-2)Man(a1-3)]Man(b1-4)GlcNAc(b1-4)GlcNAc. Summed up:
as §1

Experiment [15] has as its target Gal(b1-4)GlcNAc(b1-2)[Gal(b1-4)GlcNAc(b1-6)]Man(a1-6)[Gal(b1-4)GlcNAc(b1-2)Man(a1-3)]Man(b1-4)GlcNAc(b1-4)[Fuc(a1-6)]GlcNAc. A digest of the protocol:
as §1

Experiment [16] concerns the target Gal(b1-4)GlcNAc(b1-2)[Gal(b1-4)GlcNAc(b1-6)]Man(a1-6)[GlcNAc(b1-4)][Gal(b1-4)GlcNAc(b1-2)Man(a1-3)]Man(b1-4)GlcNAc(b1-4)GlcNAc. Summed up:
as §1

The target of experiment [17] is Gal(b1-4)GlcNAc(b1-2)[Gal(b1-4)GlcNAc(b1-6)]Man(a1-6)[GlcNAc(b1-4)][Gal(b1-4)GlcNAc(b1-2)[Gal(b1-4)GlcNAc(b1-4)]Man(a1-3)]Man(b1-4)GlcNAc(b1-4)[Fuc(a1-6)]GlcNAc. A digest of the protocol: as §1
In experiment [18] the target is Gal(b1-4)GlcNAc(b1-3)Gal(b1-3)GalNAc. A digest of the protocol:
as §1

For experiment [19], the target named is Gal(b1-4)GlcNAc(b1-3)Gal(b1-3)GlcNAc. A digest of the protocol: as §1

B1: GS7807G-bfa-506-18-506 (Bacteroides fragilis) (protein)
chain: ASCDKFDEINTDPDATTKVTSSLLATGLLLDITSSSASKSFIYDELLAKQMAWGESMEDYQYNVFGRSGFGGYTTLINAQKMVESVSDDNVNAYDGLAHFIKAYKIFYMSMEMGDLPYEEALQGELGLVRPKYNTQKEVMNFILSDLETAYELFSTAKDFDGDPILGGSISKWKKATTAFQLKVLMHLSKKESDADLKVKERFARIVASGSLMESNEDNLQMKYADKANTVYPFHNTNTKHAGYAMLSTMLIDKFKATGDIRMFYYAKPAKAKLNEGVTADSWDAYIGTDPSLPFEQIEKAYATEQYSGFNARYTDYPSGEPVVRLGYAEQNFILAEAAVRGWISGDASAYYKKAIRAHMEFIASNTPDEEVYHHGHPITEEAIAAFLETPAIQLSGEKEEDIEKILTQRYLASFMQHPYDVYYDYRRTGYPVLPINPATNRNTMNDRLPMRWMYPKSESDYNLEHQNEALERQFGGVDDVNKLMWILQ
In the case of B1, the “glycan array binding signal (z-score)” value was 2.53 in experiment [1]; 0.473 in experiment [2]; -0.154 in experiment [3]; -0.429 in [4]; -0.073 in experiment [5]; 1.4 in experiment [6]. The “glycan array binding signal (z-score)” value in experiment [7] is 0.093; in experiment [8] it was -0.139; in experiment [9], 1.01; in [10] it was 1.21; in [11], -0.615; in [12], 1.18. Further, the “glycan array binding signal (z-score)” value in experiment [13] is 0.515; in experiment [14], 1.11; in experiment [15], 0.773; in experiment [16], 0.01; in [17], -0.315; in [18], 1.48. In addition, the “glycan array binding signal (z-score)” value in [19] came out at 0.201.
